PubChem BioAssay AID504804 | Drosophila RNAi Screening Center | 2011

Purpose: 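dsRNAs that improve Kc cell survival under doxorubicin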 (primary screen)
Cells: Drosophila Kc cells
Reagents: long dsRNA against Drosophila genes, 0.5 µg dsRNA per well
Timing: 96 h (48 h knock-down, then 48 h drug)
Conditions: doxorubicin 5 µg/ml for 48 h, added 48 h after dsRNA
Measured: 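Viability measured as cellular ATP by luminescence after 48 h knock-down then 48 h doxorubicin at 5 µg/ml; unnormalised plate counts for each replicate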
Direction: raw ATP luminescence: higher = more viable cells, protection from doxorubicin
Hit rule: 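z-score of 2 or more over plate mean in both duplicates, retained only when retests and separate dsRNAs confirm the protection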
The deposit covers about 19,000 reagents; below is an unselected part of those that have a named target and a result. Of all reagents, 47 (0.25%) are marked active. 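Signals are raw, not normalised; exact z-scores behind calls not deposited; actives needed confirmation, so some wells reaching 2 SD are inactive.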 A plus sign joins genes that one reagent is predicted to hit. No sequences are given here.

"raw ATP luminescence, replicate 1","raw ATP luminescence, replicate 2",Call,target gene,dsRNA
1.79e5,1.72e5,inactive,Spn85F (Serpin 85F),DRSC14545
77777,82247,inactive,CG32110,DRSC09220
52937,51507,inactive,CG4630,DRSC06874
60603,65850,inactive,CG34112,DRSC12235
2.28e5,2.20e5,inactive,CG8160,DRSC07086
61960,73640,inactive,CG3517,DRSC15492
47110,70243,inactive,cdm (cadmus),DRSC16213
3.23e5,2.71e5,inactive,mst (misato),DRSC20582
52820,62800,inactive,CG8379,DRSC16414
23057,46930,inactive,ACC (Acetyl-CoA carboxylase),DRSC06059
61510,58963,inactive,ACC (Acetyl-CoA carboxylase),DRSC07249
3.02e5,3.05e5,inactive,CG31730,DRSC01308
42220,49370,inactive,Cp7Fa (Chorion protein a at 7F),DRSC18032
32140,38840,inactive,Cp7Fa (Chorion protein a at 7F),DRSC18033
21800,26657,inactive,SMC5 (Structural maintenance of chromosomes 5),DRSC11849
67583,74750,inactive,Mi-2 + Su(Tpl),DRSC09640
84470,1.01e5,inactive,mthl13 (methuselah-like 13),DRSC05238
60200,43080,inactive,CG15543,DRSC15081
1.02e5,58967,inactive,vls (valois),DRSC02101
31663,61950,inactive,yellow-d2,DRSC04591
81640,80010,inactive,CG14357,DRSC14820
51200,49940,inactive,CG7568,DRSC16259
48397,44730,inactive,vlc (vulcan),DRSC04922
46957,52440,inactive,rumi,DRSC15177
2.32e5,2.62e5,inactive,CG31759,DRSC01230
3.30e5,3.42e5,inactive,CG7135,DRSC20026
57643,24410,inactive,h-cup (heineken-cup),DRSC15973
37213,31620,inactive,GlyRS (Glycyl-tRNA synthetase),DRSC10711
36527,41957,inactive,"AlaRS-m (Alanyl-tRNA synthetase, mitochondrial)",DRSC09660
34000,70727,inactive,Orc6 (Origin recognition complex subunit 6),DRSC07497
43057,36517,inactive,HP4 (Heterochromatin protein 4),DRSC10958
58213,55067,inactive,CG14676,DRSC12262
32420,36640,inactive,Cpsf6 (Cleavage and polyadenylation specific factor 6),DRSC10781
69500,61820,inactive,Ugt303B2 (UDP-glycosyltransferase family 303 member B2),DRSC14198
36513,17853,inactive,Vha26 (Vacuolar H[+]-ATPase 26kD subunit),DRSC12371
49600,46750,inactive,CG7632,DRSC11842
80063,60977,inactive,"Nadk2 (NAD kinase 2, mitochondrial)",DRSC07072
80397,94090,inactive,Best2 (Bestrophin 2),DRSC09712
26160,41310,inactive,Tbh (Tyramine beta hydroxylase),DRSC18723
89040,64480,inactive,Oatp33Ea (Organic anion transporting polypeptide 33Ea),DRSC02859
18020,21583,inactive,MESR6 (Misexpression suppressor of ras 6),DRSC10720
42200,83977,inactive,CG13114,DRSC02212
39890,70210,inactive,trk (trunk),DRSC03625
47693,54227,inactive,Cyt-c-d (Cytochrome c distal),DRSC03309
1.17e5,1.06e5,inactive,CtsL1 (Cathepsin L1),DRSC05462
66803,55020,inactive,CtsL1 (Cathepsin L1),DRSC07363
25363,27117,inactive,RpS9 (Ribosomal protein S9),DRSC11273
46983,74123,inactive,trpl (transient receptor potential-like),DRSC06728
45663,75710,inactive,trpl (transient receptor potential-like),DRSC06729
26247,25933,inactive,Fibp,DRSC11031
80777,38220,inactive,CG3397,DRSC15487
55207,78973,inactive,CG10444,DRSC05990
75383,37907,inactive,CG1239,DRSC12204
65440,73850,inactive,CG3270,DRSC04988
63413,72787,inactive,CG15269,DRSC01942
2.86e5,2.70e5,inactive,bbx + waw,DRSC20589
60483,59373,inactive,CG14689,DRSC14912

Part of the list above in another layout:
raw ATP luminescence, replicate 1	raw ATP luminescence, replicate 2	Call	target gene	dsRNA
80397	94090	inactive	Best2 (Bestrophin 2)	DRSC09712
26160	41310	inactive	Tbh (Tyramine beta hydroxylase)	DRSC18723
89040	64480	inactive	Oatp33Ea (Organic anion transporting polypeptide 33Ea)	DRSC02859
18020	21583	inactive	MESR6 (Misexpression suppressor of ras 6)	DRSC10720
42200	83977	inactive	CG13114	DRSC02212
39890	70210	inactive	trk (trunk)	DRSC03625
